# Data as given in PMC7795354 (Molecules, 2020).
# Where no end group is shown, it is not given here. The star is where a group is joined. DOTA = O=C(O)CN1CCN(CC(=O)O)CCN(CC(=O)*)CCN(CC(=O)O)CC1
# Test: general procedure: Fmoc solid-phase peptide synthesis; 2-chlorotrityl chloride resin; DIPCI/HOBt
# Conditions: late stage modification step
row,Substance,step yield [%]
1,^natGa-DOTA-EG2-IPLPPPRRPFFK,82
2,^natGa-DOTA-EG4-IPLPPPRRPFFK,81
3,^natGa-DOTA-IPLPPPRRPFFK,75
4,^natGa-DOTA-aaa-IPLPPPRRPFFK,85
5,^natGa-DOTA-aaaaa-IPLPPPRRPFFK,80
6,^natGa-DOTA-ββ-IPLPPPRRPFFK,56
7,^natGa-DOTA-ββββ-IPLPPPRRPFFK,58

# Same assay, conditions: whole synthesis
row,Substance,isolated yield [%]
1,DOTA-EG2-IPLPPPRRPFFK,71
2,DOTA-EG4-IPLPPPRRPFFK,48
3,DOTA-aaa-IPLPPPRRPFFK,75
4,DOTA-aaaaa-IPLPPPRRPFFK,79
5,DOTA-ββ-IPLPPPRRPFFK,78
6,DOTA-ββββ-IPLPPPRRPFFK,58
7,{DOTA}-IPLPPPRRPFFK,66.0
